Results from paper doi:10.1101/2021.04.23.441200.

Amino acid sequences for entries named in this document (tags omitted). Residues count along the entry.
UniProt P63104: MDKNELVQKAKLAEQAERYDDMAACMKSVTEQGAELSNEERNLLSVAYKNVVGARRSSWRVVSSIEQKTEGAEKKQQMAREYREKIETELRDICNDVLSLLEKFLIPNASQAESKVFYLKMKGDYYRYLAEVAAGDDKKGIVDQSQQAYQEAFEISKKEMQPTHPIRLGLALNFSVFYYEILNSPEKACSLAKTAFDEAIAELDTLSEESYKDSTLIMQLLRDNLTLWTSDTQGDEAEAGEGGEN
UniProt P16070, residues 21-742: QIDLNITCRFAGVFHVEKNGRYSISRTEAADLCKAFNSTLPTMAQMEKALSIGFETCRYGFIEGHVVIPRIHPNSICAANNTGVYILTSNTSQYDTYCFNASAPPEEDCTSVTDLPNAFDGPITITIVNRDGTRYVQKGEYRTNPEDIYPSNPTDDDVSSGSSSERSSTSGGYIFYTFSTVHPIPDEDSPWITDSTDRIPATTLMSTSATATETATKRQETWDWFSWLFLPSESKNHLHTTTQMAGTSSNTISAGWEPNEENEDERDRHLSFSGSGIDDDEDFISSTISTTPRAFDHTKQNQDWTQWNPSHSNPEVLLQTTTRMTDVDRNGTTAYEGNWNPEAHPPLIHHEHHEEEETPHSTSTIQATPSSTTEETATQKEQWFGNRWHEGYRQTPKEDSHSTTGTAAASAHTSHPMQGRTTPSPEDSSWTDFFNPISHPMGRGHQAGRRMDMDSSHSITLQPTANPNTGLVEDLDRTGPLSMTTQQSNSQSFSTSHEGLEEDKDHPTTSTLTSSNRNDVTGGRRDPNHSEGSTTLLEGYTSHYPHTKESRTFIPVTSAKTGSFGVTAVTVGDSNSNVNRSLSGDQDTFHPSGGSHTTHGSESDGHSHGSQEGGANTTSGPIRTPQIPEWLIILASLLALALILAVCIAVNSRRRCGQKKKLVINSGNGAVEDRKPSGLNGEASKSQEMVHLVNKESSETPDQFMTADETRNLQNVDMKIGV

Target: T1, BioID2-SEPT6 (mouse) (UniProt Q9R1T4)
T1 sequence: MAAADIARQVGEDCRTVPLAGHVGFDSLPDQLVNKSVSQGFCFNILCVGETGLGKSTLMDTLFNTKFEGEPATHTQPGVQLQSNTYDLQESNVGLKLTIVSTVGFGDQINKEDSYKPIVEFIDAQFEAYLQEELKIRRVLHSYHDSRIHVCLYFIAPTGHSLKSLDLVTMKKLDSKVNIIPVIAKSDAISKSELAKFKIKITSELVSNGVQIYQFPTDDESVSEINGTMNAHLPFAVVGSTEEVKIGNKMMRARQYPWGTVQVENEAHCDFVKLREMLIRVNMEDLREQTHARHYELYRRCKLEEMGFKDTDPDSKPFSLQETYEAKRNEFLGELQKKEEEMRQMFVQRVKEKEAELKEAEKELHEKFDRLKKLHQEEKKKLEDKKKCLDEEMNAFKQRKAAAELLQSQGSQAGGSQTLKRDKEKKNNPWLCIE
Assay: proximity labelling

| binding | Substance |
| --- | --- |
| binds | 14-3-3ζ (from UniProt P63104 1-245) |
| binds | CD44 (from UniProt P16070 21-742) (receptor) |
| binds | Notch (human (endogenous in melanoma cells)) (receptor) |

No constants are given. Whether binding was seen depends on the method and setting. Binding seen in cells or lysates may run through a third protein. These calls come from enrichment with a bait or labelling near it, and not all partners need be listed.
